Assay [1] concerns the target PUB domain of peptide:N-glycanase (UniProt Q9JI78). Kind of assay: AUC; sedimentation equilibrium (SE-AUC), absorbance optics; [hHR23b-UBL] = [PNGase-PUB] = 100, 75 and 50 uM; 20,000, 30,000 and 35,000 r.p.m.; 10 mM sodium phosphate buffer pH 7.0; 25 °C; global fit with one KD (SEDPHAT, A + B to AB model); both purified.
Assay [2] shares this target. Kind of assay: condition: only in PBS (137 mM NaCl, 2.7 mM KCl, pH 7.4); 200 µM of each protein; AUC; sedimentation velocity (SV-AUC) of hHR23b-UBL (200 µM), PNGase-PUB (200 µM) and their mixture (200 µM each) in PBS (8.1 mM Na2HPO4, 1.47 mM KH2PO4, 137 mM NaCl, 2.7 mM KCl, pH 7.4); 60,000 r.p.m., Rayleigh interference optics, 25 °C; both purified.
Assay [3] shares this target. Nature of the assay: AUC; sedimentation velocity (SV-AUC) of hHR23b-UBL (200 µM), PNGase-PUB (200 µM) and their mixture (200 µM each) in 10 mM sodium phosphate buffer (PB, pH 7.0, no salt); 60,000 r.p.m., Rayleigh interference optics, 25 °C; both purified.

By UniProt entry, the sequences of proteins in these tests, tags left out. Residues count along the entry.
UniProt Q9JI78, residues 1-119: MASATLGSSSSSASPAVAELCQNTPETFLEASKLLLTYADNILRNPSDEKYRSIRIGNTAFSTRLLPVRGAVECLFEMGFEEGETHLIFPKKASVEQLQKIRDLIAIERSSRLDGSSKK
UniProt P54727, residues 1-82: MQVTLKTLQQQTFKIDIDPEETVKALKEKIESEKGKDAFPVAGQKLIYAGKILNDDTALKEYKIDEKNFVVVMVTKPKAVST

Results are given in words; binding and its absence hold for the method and conditions named. Some binding calls cover weakened binding; strength is not graded here.

For “ubiquitin-like domain of the proteasome shuttle factor hHR23b (from UniProt P54727 1-82) (domain or fragment)”, the binding entry is listed as “binds weakly” in assay [1], “no binding” in assay [2] and “binds weakly” in assay [3].
